Source: PubChem BioAssay AID1347423 (Functional Genomics Laboratory (NCATS/FGL), 2020)
The whole screen tested about 52,000 sequences, of which about 210 (0.4%) were called active.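 The calls were made as follows: active = gene whose silencing raises cell survival under the drug, median off-target-corrected z-score across its silencing RNAs 2 or more; inactive = the rest.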 The list shows a part of the results.

assay: Resistance to Poly (ADP-Ribose) Polymerase inhibitor: Gene Identification via Genome-wide siRNA Screen; conditions: mouse BRCA2 R2336H ES cells, olaparib, CellTiter-Glo viability; hits give high values
In short: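 Mouse BRCA2 R2336H ES cells were reverse-transfected with siRNA (20 nM final), treated at 48 h with 500 nM olaparib, and read by CellTiter-Glo after 72 h. Scores: MAD-based z per siRNA, median per gene, seed off-target correction.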

| Sequence | z-score |
| --- | --- |
| GGUGUUUUGCUUCCUUUUCTT against Olfr1184 | inactive: 0.128 |
| GGUGGUCAAUCGGAAGCUCTT against B430201G11Rik | inactive: 0.661 |
| GCAUUACCUGUAGUCUAUGTT against Itln2 | inactive: -2.62 |
| GGACAUAGCAUGGUUCUAATT against Sult4a1 | inactive: -0.348 |
| GGGAGUAGUAAUUGUACUUTT against Ugt2a2 | inactive: -0.91 |
| GCCGUAUGGCAAGAUUGUCTT against Rbms2 | inactive: -2.2 |
| GGACUCCUUAGAGAAACUUTT against Prlpk | inactive: -1.39 |
| GGUGGAAGGAAAGAGACCUTT against Ian3 | inactive: 1.18 |
| GCCCUGAAGCCUAUAAUCATT against Nhlrc1 | inactive: -2.33 |
| GGUCAACGUGUAUGUAUUUTT against Lrat | inactive: -1.75 |
| GGAAGUCACAAAUAAUUUGTT against Gpiap1 | inactive: 0.264 |
| GGAAAAUCACUGAAAAGUATT against Siat7a | inactive: -0.883 |
| GGAAUUCAUUGCUAUUAUGTT against Cetn3 | inactive: 0.183 |
| GCACAAGUCAAGAGCUACCTT against Ccrk | inactive: 0.157 |
| GGUCAAAAGUGCUCUGAAGTT against Olfr447 | inactive: -0.141 |
| GGAUCUGGGAUACCACACATT against Wdr1 | inactive: -1.82 |
| UCUCUUGGUACAUUUGGCATT against 1700073E17Rik | inactive: -0.787 |
| GGAGAUCACCUUCCUGAAGTT against Comp | inactive: 0.243 |
| GGAAUUGGCAUCCUUAAGCTT against Cops3 | inactive: 0.45 |
| GGUGAAAAGAUGCAGGUGATT against Atp1a3 | inactive: 1.12 |
| CCCAUCCUAUGUGCCCUAUTT against Krtap13-1 | inactive: 1.06 |
| GGAUGUUCCAUUUCUAAGCTT against Zfp30 | inactive: 0.743 |
| GGACAGAAACUAAUUGCAUTT against Tmc5 | inactive: -0.0482 |
| GGAGAAUACCAGCAACAUCTT against Golga5 | inactive: 0.731 |
| GGUCAAUGUGAUUGAGGAUTT against Centb1 | inactive: -1.12 |
| GAAAUCCAAGAGCAAUGAGTT against LOC56628 | inactive: -2.45 |

| Sequence | z-score |
| --- | --- |
| GCUAUAGAUUGGCUUUAUGTT against Depdc1a | inactive: -0.73 |
| GGAAUUUGAUGAGGAUUUGTT against 3-Sep | inactive: -0.0602 |
| CCCUUUGUGUGGAUUAUAUTT against Sp9 | inactive: 1.18 |
| GGACAUCGUAGAGAAAGUUTT against Msi1h | inactive: -0.754 |
| CGAGCUGUGUUUUUGGCUGTT against Mrpl11 | inactive: 1.28 |
| GGUUCCUUCGUUGUGUUGATT against Irx3 | inactive: 0.103 |
| GCUGGAGCUAUCCAACACUTT against Chst11 | inactive: 0.113 |
| CCUCACUGUAAUGUAACUUTT against Scarf2 | inactive: 0.294 |
| CCGGAAAAUACGCACUGUATT against Obox6 | inactive: 1.91 |
| GAAUCUGGUGAAGUAUUAUTT against Phip | inactive: 0.254 |
| GCCGCUAUGUCACACUAACTT against A830020B06Rik | inactive: 2.11 |
| GCACUUUUCUAGGAGCAGCTT against Arx | inactive: 0.287 |
| GGGCUGUGGUUUCUAUGACTT against Tpra40 | inactive: -0.591 |
| GGUGGCAAAACAGUCUGUATT against Olfr1457 | inactive: -1.25 |
| GGGACUAUCCACUCACUUUTT against Olfr981 | inactive: -0.0216 |
| CCAUCACGAGUGAAUUCGATT against Olfr945 | inactive: -0.125 |
| GGAGAAGAAAGUGGAGGCATT against Rplp1 | inactive: -2.14 |
| GGAGGGUAUUAGUGCACUGTT against Ptpn1 | inactive: -2.12 |
| CCACGCUACCUUCAAGAGATT against 1200003C23Rik | inactive: 0.253 |
| GGAUAUGCACAGACCACCCTT against Ewsr1 | inactive: -0.301 |
| GGUUGUUCAGUUCAAACUCTT against Dbt | inactive: 0.861 |
| CCCUAAUCACAUUUUGUGATT against Socs5 | inactive: 0.47 |
| GCCUUGGACUGCUUUGGAUTT against Dnclic1 | inactive: -0.368 |
| GCGGUUCUUACCAAGGACATT against LOC435684 | inactive: -2.41 |
| GGGAACUGAAAAAUUUAGATT against 4932412H11Rik | inactive: 0.241 |
| GGAAAUAAUGCUUAUGGAUTT against Abcb1b | inactive: -0.157 |

Quoted at random: five entries already listed

| Sequence | z-score |
| --- | --- |
| GGAGAAGAAAGUGGAGGCATT against Rplp1 | inactive: -2.14 |
| GCGGUUCUUACCAAGGACATT against LOC435684 | inactive: -2.41 |
| GCCGCUAUGUCACACUAACTT against A830020B06Rik | inactive: 2.11 |
| GGGCUGUGGUUUCUAUGACTT against Tpra40 | inactive: -0.591 |
| GGACAUCGUAGAGAAAGUUTT against Msi1h | inactive: -0.754 |

(continued)

| Sequence | z-score |
| --- | --- |
| GGAGGGCAUGUACUAUGAGTT against 2310051M13Rik | inactive: -0.142 |
| GGAAUGAUGAAGAGUGUCCTT against Btla | inactive: 0.0429 |
| GCACCUUCCUAAUCACAGCTT against Gpr100 | inactive: -0.292 |
| GGACCUGUUGUCAGACUGCTT against Kif20a | inactive: -0.621 |
| GCACCUCUAUUAUAAUAAGTT against Vps13c | inactive: 0.112 |
| GGGUACCAUAUCCUCACCUTT against Ltbp3 | inactive: -0.945 |
| CGCAUGCCUGUAAAAUAAATT against 2310057M21Rik | inactive: -0.688 |
| GGAAGCUGGUUCCUGUUUUTT against Bid3 | active: 2.66 |
| CCUUGACUGGAAUAUAUAATT against Dlc1 | inactive: -1.22 |
| UCUGCCACCCUCUCCAAUATT against Olfr1116 | inactive: -0.681 |
| GCCAGUUUCCAGUCCUUGUTT against Dppa5 | inactive: -2 |
| CGAGGAUUAAGAGGACUUCTT against Col9a3 | inactive: 0.166 |
| CCAGAUUCUAUAAUAGAGUTT against Gabrp | inactive: -0.526 |
| CCUGGCAGACGUGGAACAATT against Ppp1r13l | inactive: -0.0391 |
| CCUCUUCAACAAACAAGCATT against Hkr2 | inactive: 2.23 |
| GGCCCAGUUGUUAAACUCUTT against C530028O21Rik | inactive: -1.06 |
| GGCAAAGAGAUUGACAUUGTT against Kif2c | inactive: -1.67 |
| GGUGAUAGAGCACAAGGCUTT against G930045G22Rik | inactive: -0.906 |
| GGCACUCCAUCAAAGGCUUTT against Cd209a | inactive: -0.259 |
| GGCUGGAUGUCCUAUAGUCTT against Adam24 | inactive: -0.609 |
| GGUGGACUCACAUUAUUGUTT against Dctn4 | inactive: 0.723 |
| GGUCCAUGAACCUCAGUGUTT against F830045P16Rik | inactive: -2.06 |
| GCUAAUAAUGGUCAAAGCCTT against B230206N24Rik | inactive: -0.274 |
| GCAGUCAAUUCCCUUUUACTT against Ankmy1 | inactive: 2.02 |
| GCUCACUCUUUCCAACUAUTT against C330018L13Rik | inactive: -1.18 |
| GGUCGGCCAAUUACAAUGUTT against Eml4 | inactive: -0.154 |

| Sequence | z-score |
| --- | --- |
| CCUGUUCUGCCCUAAAUUUTT against Olfr1155 | inactive: -0.834 |
| GCAGGAUGCAGCGAUAGUUTT against Slc2a6 | inactive: -0.832 |
| GGACAUAAAACUUUUCAGUTT against Foxf2 | inactive: 0.918 |
| GGAAUUAAGUCAUCAGGAATT against Slc6a5 | inactive: -0.265 |
| GGACUUCUAAAAAUCUCUGTT against C030002O17Rik | inactive: -1.54 |
| CGGAACAUGGAGUUUAAGCTT against 4933406A14Rik | inactive: 0.194 |
| GGAAAAAAAAGUCUUCCUATT against 4932418K24Rik | inactive: 0.697 |
| GCAGUUUCGUUCCUACUCGTT against D11Ertd497e | inactive: -0.118 |
| GGUGAUCUAGAAACAACCCTT against 1700095F04Rik | inactive: 0.875 |
| CAAAGGAUGGCUGGUCAGATT against Sctr | inactive: -0.459 |
| CCUACUGAUGUACACUGGATT against Fgf20 | inactive: -0.728 |
| GGUGGGCUACGAACUAAAGTT against 1500019O16Rik | inactive: -0.112 |
| GGUUGUGCCAGAGGAGAUUTT against Scrib | inactive: -0.364 |
| GCGAUCUAGAAAUUGACAATT against St13 | inactive: -0.16 |
| CCAAUCUUAGUCAUCCAUUTT against Foxo6 | inactive: 0.0585 |
| CCACGUUUACACCAACGUGTT against BC044804 | inactive: 0.928 |
| GCAACAGCUUUAGAGUGACTT against B3gnt4 | inactive: 0.812 |
| CGAUAAAAAUGAAUGGGACTT against Cyp17a1 | inactive: 0.26 |
| UAAUGGCUGCUGUCUCCUGTT against Olfr441 | inactive: -1.3 |
| GGGCAACUACCUCUUUCGATT against Lrrc20 | inactive: 0.497 |
| GCGGGAGCUUAGCUUUUAUTT against G6pc3 | inactive: 0.973 |
| GGAUCUCAGUGAAGGAGGUTT against Egfl9 | inactive: -0.589 |
| CGUCUACCCGGAAUUUCAGTT against Sdha | inactive: -1.84 |
| CGUGGUUCAGUUUCAUCAATT against Cox7a2 | inactive: -0.171 |
| GCAACUUGGAAUGUUAUCUTT against Adh4 | inactive: 0.0952 |
| GGUUUGUUUUCAGAUGAAGTT against D6Wsu116e | inactive: 0.397 |

Exported in CSV form: entries from further up
Sequence,z-score
GGUCAAAAGUGCUCUGAAGTT against Olfr447,inactive: -0.141
GGAUCUGGGAUACCACACATT against Wdr1,inactive: -1.82
